{"source": "PubChem BioAssay AID1053208 (Peter MacCallum Cancer Centre, 2014)", "screen": "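Genes whose silencing cuts survival of bone tumour cells only with doxorubicin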 (primary screen)", "cell system": "mouse osteosarcoma cells, early-passage culture from an engineered mouse model of fibroblastic bone tumour", "reagent": "siRNA pool against mouse genes, 40 nM", "duration": "about 120 h (48 h before drug, then 72 h with drug)", "treatment": "doxorubicin 100 nM for 72 h, roughly 30-40% inhibitory dose", "measurement": "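Viability read as ATP luminescence after 72 h of 100 nM doxorubicin or none, duplicate wells averaged, scaled to non-targeting siRNA, then expressed as robust z-scores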", "scale": "viability z-score with doxorubicin: higher = more viable cells under doxorubicin; viability z-score without drug: higher = more viable cells with knock-down alone", "call rule": "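a pool counts as active when its viability z-score with doxorubicin is -2 or below and its z-score without drug lies between -2 and 2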", "note": "Here is one part, drawn at random, of about 17,000 deposited reagents. 788 of all reagents (4.7%) count as active. 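Calls rest on z-score classes alone; an extra cut-off of viability at most 70% of control was not applied to them.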 Not all columns of the deposit are shown."}
{"target gene": "Gabrp (gamma-aminobutyric acid type A receptor subunit pi)", "PubChem SID": "SID152284968", "combined z-score class": "no change with or without drug", "viability z-score with doxorubicin": 0.79, "viability z-score without drug": 0.67, "Outcome": "inactive"}
{"target gene": "9530056K15Rik (RIKEN cDNA 9530056K15 gene)", "PubChem SID": "SID152331621", "combined z-score class": "no change with or without drug", "viability z-score with doxorubicin": -0.34, "viability z-score without drug": -0.17, "Outcome": "inactive"}
{"target gene": "Dbt (dihydrolipoamide branched chain transacylase E2)", "PubChem SID": "SID152304919", "combined z-score class": "no change with or without drug", "viability z-score with doxorubicin": 0.45, "viability z-score without drug": 1.52, "Outcome": "inactive"}
{"target gene": "Ms4a6c (membrane-spanning 4-domains, subfamily A, member 6C)", "PubChem SID": "SID152284993", "combined z-score class": "no change with or without drug", "viability z-score with doxorubicin": -0.22, "viability z-score without drug": -1.85, "Outcome": "inactive"}
{"target gene": "Clec4e (C-type lectin domain family 4, member e)", "PubChem SID": "SID152331514", "combined z-score class": "no change with or without drug", "viability z-score with doxorubicin": -1.57, "viability z-score without drug": 0, "Outcome": "inactive"}
{"target gene": "Zfta (zinc finger translocation associated)", "PubChem SID": "SID152298556", "combined z-score class": "no change with or without drug", "viability z-score with doxorubicin": 0.67, "viability z-score without drug": 1.18, "Outcome": "inactive"}
{"target gene": "Or2at4 (olfactory receptor family 2 subfamily AT member 4)", "PubChem SID": "SID152274183", "combined z-score class": "no change with or without drug", "viability z-score with doxorubicin": 0, "viability z-score without drug": 0.84, "Outcome": "inactive"}
{"target gene": "Nt5dc1 (5'-nucleotidase domain containing 1)", "PubChem SID": "SID152263490", "combined z-score class": "no change with or without drug", "viability z-score with doxorubicin": 0.22, "viability z-score without drug": 0.51, "Outcome": "inactive"}
{"target gene": "Stmn2 (stathmin-like 2)", "PubChem SID": "SID152281108", "combined z-score class": "no change with or without drug", "viability z-score with doxorubicin": -0.45, "viability z-score without drug": -0.67, "Outcome": "inactive"}
{"target gene": "Upk3b (uroplakin 3B)", "PubChem SID": "SID152322076", "combined z-score class": "no change with or without drug", "viability z-score with doxorubicin": -0.9, "viability z-score without drug": 0, "Outcome": "inactive"}
{"target gene": "Slc4a10", "PubChem SID": "SID152262108", "combined z-score class": "no change with or without drug", "viability z-score with doxorubicin": -0.67, "viability z-score without drug": -0.17, "Outcome": "inactive"}
{"target gene": "Cnot10 (CCR4-NOT transcription complex, subunit 10)", "PubChem SID": "SID152303157", "combined z-score class": "no change with or without drug", "viability z-score with doxorubicin": -1.57, "viability z-score without drug": 0.17, "Outcome": "inactive"}
{"target gene": "Upk3a (uroplakin 3A)", "PubChem SID": "SID152269805", "combined z-score class": "low cell count with doxorubicin only", "viability z-score with doxorubicin": -2.7, "viability z-score without drug": -0.51, "Outcome": "active"}
{"target gene": "Fam110b (family with sequence similarity 110, member B)", "PubChem SID": "SID152261287", "combined z-score class": "no change with or without drug", "viability z-score with doxorubicin": 0.45, "viability z-score without drug": 1.18, "Outcome": "inactive"}
{"target gene": "Ifngr1 (interferon gamma receptor 1)", "PubChem SID": "SID152301605", "combined z-score class": "no change with or without drug", "viability z-score with doxorubicin": -0.45, "viability z-score without drug": 0.51, "Outcome": "inactive"}
{"target gene": "Rnft2 (ring finger protein, transmembrane 2)", "PubChem SID": "SID152329102", "combined z-score class": "no change with or without drug", "viability z-score with doxorubicin": -1.46, "viability z-score without drug": -0.17, "Outcome": "inactive"}
{"target gene": "Defa20 (defensin, alpha, 20)", "PubChem SID": "SID152312248", "combined z-score class": "high cell count with doxorubicin only", "viability z-score with doxorubicin": 2.02, "viability z-score without drug": 0.84, "Outcome": "inactive"}
{"target gene": "Hormad1 (HORMA domain containing 1)", "PubChem SID": "SID152304255", "combined z-score class": "low cell count with doxorubicin only", "viability z-score with doxorubicin": -4.27, "viability z-score without drug": -0.17, "Outcome": "active"}
{"target gene": "Dmc1 (DNA meiotic recombinase 1)", "PubChem SID": "SID152278857", "combined z-score class": "no change with or without drug", "viability z-score with doxorubicin": 0.11, "viability z-score without drug": -1.18, "Outcome": "inactive"}
{"target gene": "F830004M19Rik (RIKEN cDNA F830004M19 gene)", "PubChem SID": "SID152319875", "combined z-score class": "no change with or without drug", "viability z-score with doxorubicin": -0.45, "viability z-score without drug": -0.84, "Outcome": "inactive"}
{"target gene": "Nphs1 (nephrosis 1, nephrin)", "PubChem SID": "SID152274652", "combined z-score class": "no change with or without drug", "viability z-score with doxorubicin": 0.11, "viability z-score without drug": -1.52, "Outcome": "inactive"}
{"target gene": "Omt2b (oocyte maturation, beta)", "PubChem SID": "SID152316471", "combined z-score class": "no change with or without drug", "viability z-score with doxorubicin": 0.45, "viability z-score without drug": -0.84, "Outcome": "inactive"}
{"target gene": "H2bc27 (H2B clustered histone 27)", "PubChem SID": "SID152274370", "combined z-score class": "no change with or without drug", "viability z-score with doxorubicin": 0.45, "viability z-score without drug": -0.51, "Outcome": "inactive"}
{"target gene": "Gpat4 (glycerol-3-phosphate acyltransferase 4)", "PubChem SID": "SID152310634", "combined z-score class": "no change with or without drug", "viability z-score with doxorubicin": 0, "viability z-score without drug": -0.34, "Outcome": "inactive"}
{"target gene": "Kcnk2 (potassium channel, subfamily K, member 2)", "PubChem SID": "SID152283569", "combined z-score class": "low cell count without drug only", "viability z-score with doxorubicin": -1.8, "viability z-score without drug": -2.36, "Outcome": "inactive"}
{"target gene": "Wbp1l (WW domain binding protein 1 like)", "PubChem SID": "SID152308342", "combined z-score class": "low cell count with doxorubicin only", "viability z-score with doxorubicin": -2.25, "viability z-score without drug": 1.18, "Outcome": "active"}
{"target gene": "BC053071", "PubChem SID": "SID152286292", "combined z-score class": "no change with or without drug", "viability z-score with doxorubicin": -1.12, "viability z-score without drug": -1.52, "Outcome": "inactive"}
{"target gene": "Lrfn1", "PubChem SID": "SID152302829", "combined z-score class": "low cell count with doxorubicin only", "viability z-score with doxorubicin": -3.15, "viability z-score without drug": -1.18, "Outcome": "active"}
